Results deposited as PubChem BioAssay AID504793 (Drosophila RNAi Screening Center, 2011).

Purpose: 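Knock-downs allowing continued mitosis even though DNA is damaged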 (primary screen)
Cell system: Drosophila S2R+ cells
Knock-down reagent: long dsRNA against Drosophila genes, about 0.25 µg dsRNA per well
Duration: 4 days of dsRNA, then 4 hours of drug before read-out
Treatment: doxorubicin 0.5 µM for 4 hours to cause double-strand breaks, in cells also given a low, harmless dose of dsRNA against nbs to sensitise the assay
Measurement: 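Per-well count of mitotic cells stained for phospho-histone H3 after doxorubicin exposure, used as mitotic index; counts are raw and not normalised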
Direction: mitotic cells: higher = more cells in mitosis, weaker G2 arrest
Active means: 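a call needs confirmation in secondary tests, with other dsRNAs and a check of mitotic timing without damage, not just a high primary count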
Calls: active = confirmed in follow-up tests; inactive = not confirmed
The deposit covers about 23,000 reagents; this is an unselected part of those with a known target gene and a result. Of all reagents, 62 (0.27%) are marked active. 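Calls come from follow-up tests whose scores are not deposited, so confirmed genes may have low counts here; counts are not normalised per plate.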 Raw values are not corrected between plates. A number with no mark means an inactive call. The numbers tell different reagents against one gene apart. Names joined by + are all predicted targets of the reagent.

| target gene | reagent | mitotic cells, replicate 1 | mitotic cells, replicate 2 |
| --- | --- | --- | --- |
| fra | 1 | 8 | – |
| upd1 | 1 | 8 | – |
| upd1 | 2 | 6 | – |
| Gnpnat | 1 | 3 | – |
| superdeath | 1 | 12 | – |
| superdeath | 2 | 4 | – |
| CG43980 | 1 | 5 | – |
| CG43980 | 2 | 4 | – |
| CG43980 | 3 | 5 | – |
| Pfrx | 1 | 7 | – |
| Pfrx | 2 | 4 | – |
| Pfrx | 3 | 6 | – |
| cora | 1 | 5 | – |
| cora | 2 | 9 | – |
| Tfb5 + CG31917 | 1 | 9 | – |
| Phm | 1 | 8 | – |
| CG14805 | 1 | 17 | – |
| r | 1 | 23 | – |
| r | 2 | 11 | – |
| r | 3 | 15 | – |
| Syngr | 1 | 3 | – |
| Prosbeta4 | 1 | 32 | – |
| CG14270 | 1 | 6 | – |
| CG42527 (retired record) + Hr4 | 1 | 10 | – |
| CG42527 (retired record) + Hr4 | 2 | 17 | – |
| CG42527 (retired record) + Hr4 | 3 | 4 | – |
| CG42527 (retired record) + Hr4 | 4 | 3 | – |
| mgr | 1 | 7 | – |
| Cyp4d21 | 1 | 2 | – |
| Cyp4d21 | 2 | 9 | – |
| lncRNA:sphinx + ATPsynF | 1 | 5 | – |
| CG8765 | 1 | 16 | – |
| CG8765 | 2 | 8 | – |
| Acbp1 | 1 | 3 | – |
| Acbp1 | 2 | 7 | – |
| CG1620 | 1 | 3 | – |
| CG1620 | 2 | 12 | – |
| Tbce | 1 | 6 | – |
| CG7530 | 1 | 9 | – |
| CG7530 | 2 | 9 | – |
| RhoU | 1 | 11 | – |
| RhoU | 2 | 13 | 11 |
| RhoU | 3 | 11 | – |
| RhoU | 4 | 7 | – |
| RhoU | 5 | 8 | – |
| RhoU | 6 | 5 | – |
| Tsp42Ed | 1 | 6 | – |
| Atpalpha | 1 | 14 | – |
| Atpalpha | 2 | 5 | – |
| Edem2 | 1 | 5 | – |
| Edem2 | 2 | 10 | – |
| snf | 1 | 6 | – |
| snf | 2 | 5 | – |
| CG31051 | 1 | 11 | – |
| Cpr76Bd | 1 | 6 | – |
| DUBAI + Tmem18 | 1 | 5 | – |
| CG9458 | 1 | 1 | – |
| GstE2 | 1 | 8 | – |
| GstE2 | 2 | 9 | – |
| CG12012 | 1 | 3 | – |
| CG7166 | 1 | 4 | – |
| ETH | 1 | 7 | – |
| CG7460 | 1 | 2 | – |
| CG7460 | 2 | 6 | – |
| CG2113 | 1 | 7 | – |
| CG2113 | 2 | 3 | – |
| Tudor-SN | 1 | 11 | – |
| CG11983 | 1 | 5 | – |
| CG3857 | 1 | 4 | – |
| CG7963 | 1 | 3 | – |
| dgt6 | 1 | 77 | – |
| CG7974 | 1 | 5 | – |
| CG7974 | 2 | 5 | – |
| CG32568 | 1 | 11 | – |
| CG6511 | 1 | 3 | – |
| Girdin | 1 | 8 | – |
| Sox21b | 1 | 14 | – |
| Sox21b | 2 | 5 | – |
| CG11570 | 1 | 5 | – |
| Mlf | 1 | 5 | – |
| Mlf | 2 | 6 | – |
| CG10175 | 1 | 14 | – |
| CG10175 | 2 | 7 | – |
| CG10175 | 3 | 8 | – |
| Sec24CD | 1 | 8 | – |
| srp | 1 | 16 | – |
| srp | 2 | 6 | – |
| CG3638 | 1 | 9 | – |
| CG3638 | 2 | 2 | – |
| CG12728 | 1 | 8 | – |
| CG11356 | 1 | 8 | – |
| unc-5 | 1 | 6 | 5 |
| unc-5 | 2 | 5 | – |
| unc-5 | 3 | 3 | – |
| CG14625 | 1 | 5 | – |
| CG14625 | 2 | 7 | – |
| CG8460 | 1 | 1 | – |
| Eip63F-1 | 1 | 2 | – |
| Eip63F-1 | 2 | 7 | – |
| GPHR | 1 | 12 | – |
| mahj | 1 | 12 | – |
| gom | 1 | 5 | – |
| Cpr66Cb | 1 | 2 | – |
| HSPC300 | 1 | 12 | – |
| l(2)k05819 | 1 | 4 | – |
| CG6034 | 1 | 6 | – |
| CG6034 | 2 | 6 | – |
| Dhpr | 1 | 6 | – |
| CG2006 + Spase12 | 1 | 6 | – |
| CG8726 | 1 | 3 | – |
| CG8726 | 2 | 5 | – |

Reformatted: 18 of the entries above.
target gene	reagent	mitotic cells, replicate 1	mitotic cells, replicate 2
Sox21b	1	14	
Sox21b	2	5	
CG11570	1	5	
Mlf	1	5	
Mlf	2	6	
CG10175	1	14	
CG10175	2	7	
CG10175	3	8	
Sec24CD	1	8	
srp	1	16	
srp	2	6	
CG3638	1	9	
CG3638	2	2	
CG12728	1	8	
CG11356	1	8	
unc-5	1	6	5
unc-5	2	5	
unc-5	3	3	
